{
  "sequences": {"note": "Sequences of proteins named here, by UniProt entry; tags and fusion partners are left off. A change or cut given only in a name is not applied to a line headed by its entry.", "UniProt P18054": "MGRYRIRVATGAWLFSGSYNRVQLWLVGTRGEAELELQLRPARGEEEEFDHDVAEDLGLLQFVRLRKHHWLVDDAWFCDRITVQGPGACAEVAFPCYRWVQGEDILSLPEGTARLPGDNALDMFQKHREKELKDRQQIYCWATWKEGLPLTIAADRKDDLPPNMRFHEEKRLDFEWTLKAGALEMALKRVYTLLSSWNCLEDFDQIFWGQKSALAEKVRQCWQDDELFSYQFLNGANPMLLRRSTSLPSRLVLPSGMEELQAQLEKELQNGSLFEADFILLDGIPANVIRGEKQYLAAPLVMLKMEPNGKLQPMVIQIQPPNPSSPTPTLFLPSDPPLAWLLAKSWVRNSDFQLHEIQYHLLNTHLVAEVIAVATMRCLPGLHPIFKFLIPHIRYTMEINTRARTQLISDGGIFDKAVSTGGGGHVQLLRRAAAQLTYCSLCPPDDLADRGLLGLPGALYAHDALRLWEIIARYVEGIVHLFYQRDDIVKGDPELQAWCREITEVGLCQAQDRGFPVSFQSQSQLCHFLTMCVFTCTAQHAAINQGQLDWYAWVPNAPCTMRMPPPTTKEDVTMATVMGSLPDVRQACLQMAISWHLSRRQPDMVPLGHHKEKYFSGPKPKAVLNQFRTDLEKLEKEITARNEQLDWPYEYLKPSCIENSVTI"},
  "source": "PubChem BioAssay AID1671190",
  "about": "(National Center for Advancing Translational Sciences (NCATS), 2021)",
  "note": "Values joined by “and” are separate entries in the source; they are usually repeats but may differ in a detail not shown here. Equal entries are not always repeated. The whole screen tested about 580,000 compounds, of which about 6,100 (1.1%) were called active. Inconclusive results, whose numbers are uncertain, are shown with a selection of clear calls. Calls come from the whole dose curve; as a rule, active = well fitted inhibition curve with a large enough effect; inconclusive = small, poorly fitted or top-dose-only effect, or another doubt; inactive = no such curve, though single readings can be large or run the other way. Potencies of inconclusive entries are doubtful fits and often do not repeat. % is set by controls: 0 for no effect and ±100 for the full control effect; potency is the fitted concentration of half-maximal effect.",
  "data": [
    {"target": "Polyunsaturated fatty acid lipoxygenase ALOX12 (Homo sapiens) (UniProt P18054)", "assay": "Primary qHTS assay for inhibitors of human arachidonate 12S-lipoxygenase (ALOX12): Round 2", "conditions": "purified 12hLO, xylenol orange hydroperoxide absorbance; activity change, negative = inhibition: at 108 µM (top of the series) unless noted", "method_in_brief": "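Purified human 12hLO (150 nM final) in 25 mM Hepes, 0.01% Triton X-100, pH 7.0 was preincubated 15 min at room temperature with compound. Then 40 uM arachidonic acid was added, 30 min. Hydroperoxide was read by Fe-XO absorbance ratio 573/405 nm.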", "values": [
      {"smiles": "CCOC(=O)CC(=O)CSc1ccc2nnc(-c3ccc(F)cc3)n2n1", "activity change, negative = inhibition": "inconclusive: -31.6% [inhibitor]"},
      {"smiles": "Cc1ccc(NC(=O)CCc2ccc(C#N)cc2)nc1", "Potency": "inconclusive: 3.55 µM [inhibitor, full curve, poor fit]"},
      {"smiles": "O=C(NCCNCC(O)COc1ccc(O)cc1)N1CCOCC1", "note": "(stereo unspecified)", "Potency": "inconclusive: 17.8 µM [inhibitor, full curve, poor fit]"},
      {"smiles": "Cc1nn2c(-c3cccc(NC(=O)c4ccccc4)c3)nnc2c2ccccc12", "Potency": "inactive"},
      {"smiles": "CNC(=O)[C@H]1C[C@H](Oc2cccnc2)CN1S(=O)(=O)Cc1ccccc1F", "Potency": "inactive"},
      {"smiles": "COc1cccc(-c2c(C(=O)O)cc(O)c3ccc(OC)cc23)c1", "Potency": "inconclusive: 44.7 µM [inhibitor, partial curve, poor fit]"},
      {"smiles": "Cc1ccc(OCCSc2nc(NC(C)C)nc(NC(C)C)n2)cc1", "Potency": "inactive"},
      {"smiles": "CC1CC(C)(C)NC(=S)N1CCCC(=O)N1CCN(c2ccccc2F)CC1", "note": "(stereo unspecified)", "Potency": "inconclusive: 14.1 µM [inhibitor, partial curve, poor fit]"},
      {"smiles": "NC(=O)C(c1ccc(Cl)cc1)c1ccc(Sc2ccccc2)nn1", "note": "(stereo unspecified)", "Potency": "inconclusive: 100 µM [inhibitor, single point]"},
      {"smiles": "C=CCn1c(NC(=O)c2ccc(C)cc2)c(C#N)sc1=N", "Potency": "inconclusive: 89.1 µM [inhibitor, partial curve, poor fit]"},
      {"smiles": "O=c1c(-c2ccco2)nc2ccccc2n1C(c1ccccc1)c1nc2ccccc2[nH]1", "note": "(stereo unspecified)", "Potency": "active: 17.8 µM"},
      {"smiles": "COc1ccc(CNC(=O)/C(C#N)=C/c2cccc(OC)c2OC)cc1", "Potency": "inconclusive: 112 µM [inhibitor, single point]"},
      {"smiles": "CC(=O)c1ccc(OCCCC(=O)Nc2cccc(S(=O)(=O)N(C)C)c2)cc1", "Potency": "inactive"},
      {"smiles": "Cc1ccc(/C=C(/C#N)c2nc3ccccc3[nH]2)c(C)c1", "Potency": "inconclusive: 39.8 µM [inhibitor, partial curve, poor fit]"},
      {"smiles": "CC(=O)N1CCN(C(=S)NC(=O)c2c(-c3ccccc3Cl)noc2C)CC1", "Potency": "inconclusive: 2.82 µM [inhibitor, full curve, poor fit]"},
      {"smiles": "COc1ccc(-c2cc(C)no2)cc1S(=O)(=O)N1CCOc2ccccc21", "Potency": "inactive and inconclusive: 50.1 µM [inhibitor, partial curve, poor fit]"},
      {"smiles": "CCc1cc(C(=O)N2CC[C@@H]3[C@@H](CCC(=O)N3CCN)C2)n(C)n1", "Potency": "inconclusive: 25.1 µM [inhibitor, full curve]"},
      {"smiles": "CN(Cc1ccccc1)C(=O)c1coc(CN2CCN(c3ccccc3F)CC2)n1", "Potency": "inactive"},
      {"smiles": "COC(=O)C(c1ccccc1)(c1cn(C)c2ccccc12)C(Nc1ccccc1)c1cccc(Br)c1", "note": "(stereo unspecified)", "Potency": "inactive"},
      {"smiles": "CC(C)c1ccc(OCC(=O)NC(Cc2c[nH]c3ccccc23)C(=O)O)cc1", "note": "(stereo unspecified)", "Potency": "inconclusive: 56.2 µM [inhibitor, partial curve, poor fit]"},
      {"smiles": "O=C(O)CN1CCN(Cc2ccccc2Cl)C1=O", "Potency": "inactive"},
      {"smiles": "Cc1cccc(-n2c(=S)[nH]c3sc4c(c3c2=O)CCc2ccccc2-4)c1", "Potency": "active: 15.8 µM"},
      {"smiles": "O=C(Nc1cc(Cl)cc(Cl)c1)c1ccc(F)c(S(=O)(=O)N2CCc3ccccc32)c1", "Potency": "inconclusive: 126 µM [inhibitor, partial curve, poor fit]"},
      {"smiles": "CC(C)c1ccc(CN2CCSCC2)cc1", "Potency": "inconclusive: 0.631 µM [inhibitor, full curve]"},
      {"smiles": "N#CC(=C=[N-])c1nc2ccccc2nc1-[n+]1ccccc1", "Potency": "inconclusive: 50.1 µM [inhibitor, partial curve, poor fit]"},
      {"smiles": "N#CC1=C(N)N(c2ccccc2)C2=C(C(=O)CCC2)C1c1ccsc1", "note": "(stereo unspecified)", "Potency": "inconclusive: 79.4 µM [inhibitor, partial curve, poor fit]"},
      {"smiles": "CC(C)(C)C(=O)Cc1[nH]c2cc(Cl)ccc2c1C(C)(C)C", "Potency": "inactive"},
      {"smiles": "Cc1ccc2c(c1)cc(C(=O)NCCc1ccccc1)n2C", "Potency": "inactive"},
      {"smiles": "COc1c2c(c(C)c3c1C(=O)OC3)O[C@@]1(C)CC[C@@]3(O)C(C)(C)OC(=O)CC[C@]3(C)[C@H]1C2", "Potency": "inconclusive: 89.1 µM [inhibitor, partial curve, poor fit]"},
      {"smiles": "COc1ccccc1C1c2c(-c3ccc(C)cc3)n[nH]c(=O)c2Nc2nnnn21", "note": "(stereo unspecified)", "Potency": "inactive"},
      {"smiles": "CCOC(=O)/C(C#N)=C1/C(=O)N(Cc2ccccc2)c2ccccc21", "Potency": "inconclusive: 39.8 µM [inhibitor, partial curve]"},
      {"smiles": "S=C(NCCSCc1ccc(Cl)cc1)Nc1ccccc1", "Potency": "active: 44.7 µM"},
      {"smiles": "CCOC(=O)C1CCN(c2nc3c(S(=O)(=O)c4ccccc4)nnn3c3ccsc23)CC1", "Potency": "inactive"},
      {"smiles": "Cc1noc(C)c1COc1cccc(C(=O)Nc2ccc(Br)cc2F)c1", "Potency": "inactive"},
      {"smiles": "O=C(Nc1ccncc1)Nc1cccc(C(F)(F)F)c1", "Potency": "inactive"},
      {"smiles": "N#CC1=C(N)OC2=C(C(=O)CC(c3ccc(Cl)cc3)C2)C1c1ccc(Cl)c(Cl)c1", "note": "(stereo unspecified)", "Potency": "inconclusive: 15.8 µM [inhibitor, full curve, poor fit]"},
      {"smiles": "COc1ccc(NC(=O)Nc2nnc(C)s2)cc1", "Potency": "inactive"},
      {"smiles": "CCc1noc(C)c1C(=O)Nc1nc(-c2cccs2)cs1", "Potency": "inactive"},
      {"smiles": "O=C1CCN(C(=O)/C=C/c2cc(Br)ccc2F)CC1", "Potency": "inactive"},
      {"smiles": "Oc1ccccc1C(=S)N1CCCCC1", "Potency": "inconclusive: 44.7 µM [inhibitor, partial curve, poor fit]"},
      {"smiles": "COc1ccc(CNC(=O)CC2Sc3ccccc3NC2=O)cc1OC", "note": "(stereo unspecified)", "Potency": "inconclusive: 6.31 µM [inhibitor, full curve, poor fit]"},
      {"smiles": "CC(=O)Nc1cccc(NC(=O)C2CCN(c3nc4ccccc4o3)CC2)c1", "Potency": "inactive"},
      {"smiles": "CCCCCCCCC(=O)OCC", "Potency": "inactive"},
      {"smiles": "COc1cc(/C=C(/C#N)C(=O)O)ccc1OC(=O)c1cccs1", "Potency": "inconclusive: 0.794 µM [inhibitor, full curve, poor fit]"},
      {"smiles": "[3H]C([3H])([3H])C(O)(CCC[C@@H](C)C1CC[C@H]2/C(=C/C=C3/C[C@@H](O)CCC3=C)CCC[C@]12C)C([3H])([3H])[3H]", "note": "(stereo partly specified)", "Potency": "inconclusive: 70.8 µM [inhibitor, partial curve, poor fit]"},
      {"smiles": "ON(CCc1ccccn1)Cc1ccccc1", "Potency": "inconclusive: 7.08 µM [inhibitor, full curve, poor fit]"}
    ]}
  ]
}
